Library screen at single concentrations

A: 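Whole-parasite assay of Trypanosoma brucei over 72 hours; the read-out is not stated. Concentration: 30 µM. Direction is inferred from retests: higher values go with stronger inhibition. Values scatter widely below zero; nearly all retest evidence comes from the higher of the two concentrations used. Of about 64,000 compounds tested this way, about 940 (1.5%) reached 50% or more in at least one test.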
B: 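Cell assay of Leishmania donovani living inside macrophages; the read-out is not stated. Compounds at 30 µM. Higher reads as stronger inhibition (inferred: compounds with an IC50 in retests scored well above the rest). Of about 69,000 compounds tested this way, about 1,000 (1.5%) reached 50% or more in at least one test.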

Each number is a percent effect as filed. The controls that fix the scale are not given in the record; negative values are as filed. Compounds were drawn at random from those tested, without regard to their results. Two or more numbers in one place are separate tests of the same structure; such repeats can differ widely.

{"compound": "COc1cc(C(=O)N(Cc2cnn(C)c2)C(C)C)ccc1OC(C)C", "A": -17.48, "B": 3.107}
{"compound": "CCNC(=O)NC1CCCN(c2ccc(C)cc2)C1=O", "stereo": "stereo not drawn", "A": -54.48, "B": 2.142}
{"compound": "O=C(CCc1nnc(-c2ccsc2)o1)NCC1CCN(C2CC2)C1", "stereo": "stereo not drawn", "A": -50.87, "B": 12.08}
{"compound": "CN(Cc1ccccc1)c1cnn(CC2COCCO2)c(=O)c1", "stereo": "stereo not drawn", "A": -44.65, "B": 0.387}
{"compound": "c1ccc(COC2CCN(c3cncc(-n4cccn4)n3)CC2)cc1", "A": 20.75, "B": -14.8}
{"compound": "Cc1ccc(-c2cc(N)c(=O)n(C(C)C(=O)NCC3CCCCC3)n2)s1", "stereo": "stereo not drawn", "A": -24.97, "B": -16.2}
{"compound": "c1ccc(-n2ccc(CNC3CCc4ncnn4C3)n2)cc1", "stereo": "stereo not drawn", "A": 3.175, "B": 6.236}
{"compound": "O=C(CCCN1CCCCC1)N1CCN(C(=O)c2nc[nH]n2)CC1", "A": 11.24, "B": 0.03471}
{"compound": "CCC(CC)C(=O)c1c[nH]c(C(=O)N2CCN(c3ccccc3)CC2)c1", "B": 10.62}
{"compound": "CC(C)C(=O)N1CCCC2(CC(C(=O)NCc3cccnc3)=NO2)C1.O=C(O)C(F)(F)F", "stereo": "stereo not drawn", "A": -19.72, "B": -16.35}
{"compound": "CNc1cncc(C2CCCN2C(=O)CCn2ccnc2)n1", "stereo": "stereo not drawn", "A": -4.74, "B": 1.152}
{"compound": "COCCN1CCCC(O)(CN2CCN(c3ncccc3C)CC2)C1=O", "stereo": "stereo not drawn", "A": -18.59, "B": 23.71}
{"compound": "CCOc1ccnc(N2CCN(C(=O)CCc3ccncc3)CC2)n1", "A": -0.1862, "B": 28.85}
{"compound": "CCc1nc2n(n1)CC(NCC(=O)Nc1cc(C)on1)CC2", "stereo": "stereo not drawn", "A": -55.03, "B": 1.932}
{"compound": "O=C(c1cnc(NCC2CCCO2)c(Cl)c1)N1CCCCC1", "stereo": "stereo not drawn", "A": -63.65, "B": -37.93}
{"compound": "CCc1ncncc1C(=O)Nc1ccc2ccn(CCN(C)C)c2c1", "A": -20.52, "B": 10.75}
{"compound": "Cc1cccc(C2CCCN(C(=O)c3ccncc3)C2)n1", "stereo": "stereo not drawn", "A": -3.293, "B": "6.503 & 5.951"}
{"compound": "Cc1noc(-c2ccnc(N3CCN(C4CCOCC4)CC3)c2)n1", "A": -10.13, "B": -18.39}
{"compound": "Cc1csc(N2CCCN(C(=O)c3occc3C)CC2)n1", "A": 2.903, "B": 20.68}
{"compound": "CCOc1cccc(CNC2CCCN(Cc3noc(C)n3)C2)c1", "stereo": "stereo not drawn", "A": -5.308, "B": 19.87}
{"compound": "CC(=O)N1CCN(C(=O)CCCc2nc(C(C)C)no2)CC1", "A": -51.3, "B": -6.139}
{"compound": "COc1cccc(CN(C)Cc2c(C)noc2C)c1OC", "A": -23.37, "B": 8.637}
{"compound": "CCN(CCCNC(=O)Nc1ccccc1C(C)C)S(C)(=O)=O", "A": -72.35, "B": 27.9}
{"compound": "Cc1cc(OCC(N)=O)ccc1NC(=O)C(C)Cc1ccccc1F", "stereo": "stereo not drawn", "A": -24.86, "B": 9.091}
{"compound": "O=C(O)c1cccc(N2CCC(Oc3cccc(F)c3)CC2)n1", "A": -29.78, "B": 15.91}
{"compound": "c1ccc(N(CCn2cncn2)CC2CC2)cc1", "A": -9.292, "B": 24.24}
{"compound": "CN(C(=O)c1ccccc1F)[C@@H]1CC[C@@H](O)[C@@H]1O", "B": 24.79}
{"compound": "CCOc1ncccc1NC(=O)N1CCCC(CNC(N)=O)C1", "stereo": "stereo not drawn", "B": 32.32}
{"compound": "CN(C)CCn1c2c(ccc1=O)CCN(C(=O)c1ccoc1)CC2.O=C(O)C(F)(F)F", "A": -45.47, "B": 0.882}
{"compound": "CC1=C(c2ccc(C(C)C)cc2)S(=O)(=O)N=C1N1CCc2ccccc21", "A": -0.1775, "B": -3.018}
{"compound": "Cc1nnc(CN2CCCCC2c2nc(-c3ccccc3)no2)s1", "stereo": "stereo not drawn", "B": -23.34}
{"compound": "Cc1ncsc1CN1Cc2cn(C)nc2C(COCC2CC2)C1.O=C(O)C(F)(F)F.O=C(O)C(F)(F)F", "stereo": "stereo not drawn", "A": -12.08, "B": -9.555}
{"compound": "O=C(O)C(F)(F)F.[H][C@@]12CCN(CC3CCOCC3)C[C@@]1([H])O[C@@H](c1nc(C)no1)C2", "A": -142.3, "B": 7.428}
{"compound": "Cc1cnc(Nc2cccc(C3CCCN3C(=O)CO)n2)s1", "stereo": "stereo not drawn", "A": 28.67, "B": -9.494}
{"compound": "O=C(O)c1csc(S(=O)(=O)Nc2cccc(OC(F)F)c2)c1", "A": -18.57, "B": 21.83}

Data taken from ChEMBL document CHEMBL3988442, “University of Dundee, Small-Polar-MMV Screening Library” (2021).